{"sequences": {"note": "By UniProt entry, the sequences of proteins in these tests, tags left out.", "UniProt Q92831": "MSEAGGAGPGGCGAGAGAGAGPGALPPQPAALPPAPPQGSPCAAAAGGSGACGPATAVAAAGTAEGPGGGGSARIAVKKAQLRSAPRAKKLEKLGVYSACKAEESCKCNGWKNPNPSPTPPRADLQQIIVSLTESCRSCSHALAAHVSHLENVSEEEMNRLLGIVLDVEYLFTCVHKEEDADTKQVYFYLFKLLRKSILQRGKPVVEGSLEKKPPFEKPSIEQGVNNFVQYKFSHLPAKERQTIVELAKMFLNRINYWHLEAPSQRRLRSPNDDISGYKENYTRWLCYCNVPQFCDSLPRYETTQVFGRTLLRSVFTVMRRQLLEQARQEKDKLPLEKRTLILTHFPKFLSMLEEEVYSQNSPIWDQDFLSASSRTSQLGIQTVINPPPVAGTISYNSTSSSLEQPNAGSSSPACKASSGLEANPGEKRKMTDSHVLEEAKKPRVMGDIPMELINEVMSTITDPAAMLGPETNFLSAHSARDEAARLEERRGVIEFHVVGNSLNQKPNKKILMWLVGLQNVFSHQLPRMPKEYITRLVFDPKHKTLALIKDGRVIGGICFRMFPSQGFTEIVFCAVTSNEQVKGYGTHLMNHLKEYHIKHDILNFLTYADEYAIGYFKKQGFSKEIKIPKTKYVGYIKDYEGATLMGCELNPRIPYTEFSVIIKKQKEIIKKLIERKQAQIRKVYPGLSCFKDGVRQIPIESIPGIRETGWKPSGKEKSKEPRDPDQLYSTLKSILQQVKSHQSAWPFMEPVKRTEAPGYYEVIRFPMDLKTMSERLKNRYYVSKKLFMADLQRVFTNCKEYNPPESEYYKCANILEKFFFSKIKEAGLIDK", "UniProt Q04206": "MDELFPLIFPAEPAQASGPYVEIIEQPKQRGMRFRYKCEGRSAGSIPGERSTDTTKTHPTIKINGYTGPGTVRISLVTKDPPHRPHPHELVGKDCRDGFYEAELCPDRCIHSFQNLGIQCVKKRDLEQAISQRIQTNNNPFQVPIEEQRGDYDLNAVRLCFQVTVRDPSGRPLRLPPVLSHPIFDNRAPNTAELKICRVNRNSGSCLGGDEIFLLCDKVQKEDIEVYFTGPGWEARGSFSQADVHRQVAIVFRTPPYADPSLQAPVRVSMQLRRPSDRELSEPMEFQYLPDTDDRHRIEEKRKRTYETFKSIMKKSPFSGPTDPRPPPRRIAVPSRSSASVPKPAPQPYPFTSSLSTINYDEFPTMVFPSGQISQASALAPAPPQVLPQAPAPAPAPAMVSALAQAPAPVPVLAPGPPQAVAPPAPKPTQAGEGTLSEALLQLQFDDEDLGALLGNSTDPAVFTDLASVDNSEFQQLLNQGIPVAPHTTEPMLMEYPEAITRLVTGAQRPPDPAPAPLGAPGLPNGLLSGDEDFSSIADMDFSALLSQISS"}, "source": "paper PMC10439630", "target": "P300/CBP-associated factor (PCAF) (human) (UniProt Q92831)", "experiment": "co-IP; reciprocal co-IP; protein A + G magnetic beads with antibody (PCAF, p65, HA and Flag antibodies listed) or normal IgG added to cell extracts in lysis buffer for Western and IP with PMSF and phosphatase inhibitor; western blot; cells not named", "note": "No constants are given. Whether binding was seen depends on the method and setting. Binding seen in cells or lysates may run through a third protein. Some entries that bind do so weakly or less than the wild type.", "data": [{"substance": "NF-κB subunit p65 (from UniProt Q04206 1-551)", "values": [{"measurement": "binding", "value": "binds"}]}]}
